# Experimental data as given in PubChem BioAssay AID1224903 (Bradner/Qi Labs at DFCI, 2016).
# The chains behind the UniProt entries cited, without tags or fusion partners.
# UniProt O95931, whole entry: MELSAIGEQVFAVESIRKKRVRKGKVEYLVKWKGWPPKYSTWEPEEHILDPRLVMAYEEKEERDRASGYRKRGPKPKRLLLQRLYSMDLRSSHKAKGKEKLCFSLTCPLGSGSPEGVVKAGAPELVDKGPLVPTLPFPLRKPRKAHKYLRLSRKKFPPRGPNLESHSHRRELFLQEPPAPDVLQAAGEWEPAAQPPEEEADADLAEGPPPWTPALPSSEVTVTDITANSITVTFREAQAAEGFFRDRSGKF
# Some of the results follow.
# Target: Chromobox protein homolog 7 (Homo sapiens) (UniProt O95931)
# Assay: blockers of CBX7 binding to H3K27me3 peptide – biochemical, AlphaScreen, primary screen (AID 1224903)
# Settings: AlphaScreen His6-CBX7 / biotin-H3K27me3 peptide binding; measured here: z-score of CBX7 signal; stronger effect = lower value
row,Compound,z-score
1,NC(=O)C1(Nc2ccccc2)CCN(Cc2ccccc2)CC1,-1.19
2,COc1ccc(NC2CCN(CCCC(=O)c3ccc(F)cc3)CC2)cc1,-1.03
3,O=C(CCCN1CCC(Nc2ccccc2)CC1)c1ccc(F)cc1,-3.22
4,CN1CCN(CCOC(=O)C(O)(c2ccccc2)c2ccccc2)CC1,-0.334
